According to patent publication US20150344571A1 (KANGWON NATIONAL UNIVERSITY UNIVERSITY INDUSTRY COOPERATION …, published 2015):
Changes are numbered by the printed parent chain. In names and notes the source's numbering stands. These are yes or no findings as the source states them, for the method shown. Some binding calls cover weakened binding; strength is not graded here.

Amino acid sequences for entries named in this document (tags omitted). A change or cut given only in a name is not applied to a line headed by its entry. Chains listed by the source or under a name are the forms on record and can include a tag or linker. Residues count along the entry.
UniProt P11627: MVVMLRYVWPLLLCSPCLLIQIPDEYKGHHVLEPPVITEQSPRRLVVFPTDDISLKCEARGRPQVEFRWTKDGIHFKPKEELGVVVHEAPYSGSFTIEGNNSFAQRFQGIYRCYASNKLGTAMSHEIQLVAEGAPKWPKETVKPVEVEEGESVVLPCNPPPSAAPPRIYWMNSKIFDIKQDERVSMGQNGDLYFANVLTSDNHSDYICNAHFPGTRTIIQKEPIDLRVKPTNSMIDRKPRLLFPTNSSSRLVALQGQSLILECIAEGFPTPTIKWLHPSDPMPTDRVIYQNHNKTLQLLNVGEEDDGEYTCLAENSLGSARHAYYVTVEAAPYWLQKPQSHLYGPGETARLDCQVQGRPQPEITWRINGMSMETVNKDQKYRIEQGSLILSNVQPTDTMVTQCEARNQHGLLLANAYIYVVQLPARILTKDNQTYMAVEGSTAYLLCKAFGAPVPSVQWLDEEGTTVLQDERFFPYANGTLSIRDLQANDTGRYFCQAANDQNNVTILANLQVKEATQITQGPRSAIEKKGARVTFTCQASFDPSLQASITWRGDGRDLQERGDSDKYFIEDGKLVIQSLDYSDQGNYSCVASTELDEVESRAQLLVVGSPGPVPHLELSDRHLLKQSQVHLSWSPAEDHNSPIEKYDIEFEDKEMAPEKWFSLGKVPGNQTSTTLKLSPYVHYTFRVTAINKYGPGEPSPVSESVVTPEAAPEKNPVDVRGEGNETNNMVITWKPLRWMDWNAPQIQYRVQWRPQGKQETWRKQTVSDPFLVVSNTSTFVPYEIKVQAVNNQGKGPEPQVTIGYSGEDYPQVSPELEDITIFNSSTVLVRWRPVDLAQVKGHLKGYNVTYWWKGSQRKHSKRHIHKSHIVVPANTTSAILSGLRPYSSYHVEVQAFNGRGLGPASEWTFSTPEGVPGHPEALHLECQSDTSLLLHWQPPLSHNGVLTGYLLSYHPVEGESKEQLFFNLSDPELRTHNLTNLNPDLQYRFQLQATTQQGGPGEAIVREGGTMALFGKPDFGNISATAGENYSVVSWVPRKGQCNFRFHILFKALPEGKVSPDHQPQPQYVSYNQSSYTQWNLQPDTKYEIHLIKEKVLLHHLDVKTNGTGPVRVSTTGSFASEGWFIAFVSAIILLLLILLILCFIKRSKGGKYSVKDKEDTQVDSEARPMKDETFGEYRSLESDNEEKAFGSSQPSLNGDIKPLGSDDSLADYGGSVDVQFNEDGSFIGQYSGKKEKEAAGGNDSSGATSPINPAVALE
mouse L1CAM on cells (B16F1 melanoma cells; normal mouse tissue): residues 20-1260 of P11627
mouse L1CAM (purified extracellular domain with S1 tag): residues 20-1123 of P11627
UniProt P32004, residues 421-512: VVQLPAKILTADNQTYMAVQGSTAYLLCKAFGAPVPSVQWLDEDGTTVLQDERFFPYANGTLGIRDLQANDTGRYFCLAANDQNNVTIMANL

Legend:
[1] = target: mouse L1CAM (purified extracellular domain with S1 tag) (mouse) (UniProt P11627); assay: indirect ELISA on coated mouse L1CAM, mutant IgG in culture supernatant, relative to Ab4
[2] = target: mouse L1CAM on cells (B16F1 melanoma cells; normal mouse tissue) (mouse) (UniProt P11627); assay: flow cytometry on B16F1 cells
[3] = target: mouse L1CAM on cells (B16F1 melanoma cells; normal mouse tissue) (mouse) (UniProt P11627); assay: flow cytometry on B16F1 cells (figure legend)
[4] = target: mouse L1CAM on cells (B16F1 melanoma cells; normal mouse tissue) (mouse) (UniProt P11627); assay: flow cytometry on B16F1 cells, anti-human IgG(Fc)-FITC
[5] = target: mouse L1CAM on cells (B16F1 melanoma cells; normal mouse tissue) (mouse) (UniProt P11627); assay: immunohistochemistry on frozen sections of normal mouse tissue, 2.5 µg/ml antibody
[6] = target: mouse L1CAM on cells (B16F1 melanoma cells; normal mouse tissue) (mouse) (UniProt P11627); assay: flow cytometry on L1CAM-positive and L1CAM-negative cells
[7] = target: mouse L1CAM (purified extracellular domain with S1 tag) (mouse) (UniProt P11627); assay: indirect ELISA on coated antigen, culture supernatant
[8] = target: mouse L1CAM (purified extracellular domain with S1 tag) (mouse) (UniProt P11627); assay: indirect ELISA of the 6 clones
[9] = target: mouse L1CAM (purified extracellular domain with S1 tag) (mouse) (UniProt P11627); assay: indirect ELISA of clone culture supernatants
[10] = target: Ig5 domain-hFc fusion protein of human L1CAM (human) (UniProt P32004); assay: FACS of yeast-displayed scFv with Ig5-hFc
[11] = target: Ig5 domain-hFc fusion protein of human L1CAM (human) (UniProt P32004); assay: FACS of yeast-displayed scFv with Ig5-hFc at 1×10^-5 to 1×10^-8 M
[12] = target: Ig5 domain-hFc fusion protein of human L1CAM (human) (UniProt P32004); assay: FACS of yeast-displayed scFv with Ig5-hFc at 1×10^-8 M

B1: R31A (antibody, V domains shown)
VH: EVQLVESGGGVVQPGRSLRLSCAASGFTFSAFGMHWVRQAPGKGLEWVAVISNDGSNKYYADSVKGRFTISRDNSKNTLYLQMNSLRPEDTAVYYCARGRHYGSGSLFDPWGQGTLVTVSS
VL: DIQLTQSPSSLSASVGDRVTITCRASRTISIYVNWYRQRPGKAPESLIYAASNLHSGVPSRFSGSGSGTDFTLTVSSLQPEDFGTYYCQQTHDTRQYTFGQGTKLEIK
binding [1]: binds

B2: S52A (antibody, V domains shown)
VH: B1 VH with A31R, S52A
VL: B1 VL
binding [1]: binds

B3: N52aA (antibody, V domains shown)
VH: B1 VH with A31R, N53A
VL: B1 VL
binding [1]: binds

B4: D53A (antibody, V domains shown)
VH: B1 VH with A31R, D54A
VL: B1 VL
binding [1]: binds

B5: G54A (antibody, V domains shown)
VH: B1 VH with A31R, G55A
VL: B1 VL
binding [1]: binds

B6: S55A (antibody, V domains shown)
VH: B1 VH with A31R, S56A
VL: B1 VL
binding [1]: binds

B7: F32A (antibody, V domains shown)
VH: B1 VH with A31R, F32A
VL: B1 VL
binding [1]: binds

B8: N56A (antibody, V domains shown)
VH: B1 VH with A31R, N57A
VL: B1 VL
binding [1]: binds

B9: K57A (antibody, V domains shown)
VH: B1 VH with A31R, K58A
VL: B1 VL
binding [1]: binds

B10: Y58A (antibody, V domains shown)
VH: B1 VH with A31R, Y59A
VL: B1 VL
binding [1]: binds

B11: G33A (antibody, V domains shown)
VH: B1 VH with A31R, G33A
VL: B1 VL
binding [1]: binds

B12: L100cA (antibody, V domains shown)
VH: B1 VH with A31R, L107A
VL: B1 VL
binding [1]: binds

B13: F100dA (antibody, V domains shown)
VH: B1 VH with A31R, F108A
VL: B1 VL
binding [1]: binds

B14: D101A (antibody, V domains shown)
VH: B1 VH with A31R, D109A
VL: B1 VL
binding [1]: binds

B15: P102A (antibody, V domains shown)
VH: B1 VH with A31R, P110A
VL: B1 VL
binding [1]: binds

B16: Q89A (antibody, V domains shown)
VH: B1 VH with A31R
VL: B1 VL with Q89A
binding [1]: binds

B17: Q90A (antibody, V domains shown)
VH: B1 VH with A31R
VL: B1 VL with Q90A
binding [1]: binds

B18: T91A (antibody, V domains shown)
VH: B1 VH with A31R
VL: B1 VL with T91A
binding [1]: binds

B19: H92A (antibody, V domains shown)
VH: B1 VH with A31R
VL: B1 VL with H92A
binding [1]: binds

B20: M34A (antibody, V domains shown)
VH: B1 VH with A31R, M34A
VL: B1 VL
binding [1]: binds

B21: T94A (antibody, V domains shown)
VH: B1 VH with A31R
VL: B1 VL with T94A
binding [1]: binds

B22: R95A (antibody, V domains shown)
VH: B1 VH with A31R
VL: B1 VL with R95A
binding [1]: binds

B23: Q95aA (antibody, V domains shown)
VH: B1 VH with A31R
VL: B1 VL with Q96A
binding [1]: binds

B24: Y96A (antibody, V domains shown)
VH: B1 VH with A31R
VL: B1 VL with Y97A
binding [1]: binds

B25: T97A (antibody, V domains shown)
VH: B1 VH with A31R
VL: B1 VL with T98A
binding [1]: binds

B26: Ab4M antibody (antibody, IgG1, V domains shown)
VH: B1 VH with A31R, V50F, H101A
VL: B1 VL with V75I, G84A, D93A
notes: Ab4 with V50F and H97A in VH and V75I, G84A and D93A in VK; Whole IgG (IgG1 vector pdCMV-dhfrC-Ab4M)
binding [2]: binds
binding [3]: binds

B27: Ab417 antibody (antibody, V domains shown)
VH: B1 VH with A31R, V50F, H101A
VL: B1 VL with V75I, G84A, T91S, H92I, D93G, T94R, R95G, Q96V, Y97V
notes: Whole IgG expressed from pdCMV-dhfrC-Ab417; also called IgG form of Ab4M-18 (codon-optimised)
binding [4]: binds
binding [5]: binds
binding [6]: binds

B28: D93A mutant of Ab4 antibody (antibody, IgG1, V domains shown)
VH: B1 VH with A31R
VL: B1 VL with D93A
notes: Whole IgG made in the pdCMV-dhfrC-Ab4 vector (IgG1); also called VK D93A mutant
binding [7]: binds

B29: H97A mutant of Ab4 antibody (antibody, IgG1, name in Kabat numbering, V domains shown)
VH: B1 VH with A31R, H101A
VL: B1 VL
notes: Whole IgG made in the pdCMV-dhfrC-Ab4 vector (IgG1); also called VH H97A mutant of Ab4
binding [7]: binds

B30: H35A (antibody, V domains shown)
VH: B1 VH with A31R, H35A
VL: B1 VL
binding [1]: binds

B31: I51A (antibody, V domains shown)
VH: B1 VH with A31R, I51A
VL: B1 VL
binding [1]: binds

B32: Ab4 (Fab-type clone from the phage library) (Fab, V domains shown)
VH: B1 VH with A31R
VL: B1 VL
binding [8]: binds
binding [9]: binds

B33: V50A mutant of Ab4 VH (antibody, V domains shown)
VH: B1 VH with A31R, V50A
VL: B1 VL
binding [7]: binds

B34: V50F mutant of Ab4 (VH V50F with the V75I/G84A light chain) (antibody, V domains shown)
VH: B1 VH with A31R, V50F
VL: B1 VL with V75I, G84A
binding [7]: binds

B35: Ab4M scFv displayed on the yeast surface (scFv, not shown: large carriers)
scFv: EVQLVESGGGVVQPGRSLRLSCAASGFTFSRFGMHWVRQAPGKGLEWVAFISNDGSNKYYADSVKGRFTISRDNSKNTLYLQMNSLRPEDTAVYYCARGRAYGSGSLFDPWGQGTLVTVSSGGGGSGGGGSGGGGSDIQLTQSPSSLSASVGDRVTITCRASRTISIYVNWYRQRPGKAPESLIYAASNLHSGVPSRFSGSGSGTDFTLTISSLQPEDFATYYCQQTHATRQYTFGQGTKLEIK
binding [10]: binds
binding [11]: binds

B36: Ab4M-18 scFv displayed on the yeast surface (scFv, not shown: large carriers)
scFv: B35 scFv with T227S, H228I, A229G, T230R, R231G, Q232V, Y233V
binding [12]: binds
